Test results reported in paper doi:10.1101/2022.02.02.478874.
Results are given in words; binding and its absence hold for the method and conditions named. Some binding calls cover weakened binding; strength is not graded here.

What was measured:
[1] = target: Dynactin p25 with a 6His tag (p25-6His) (UniProt Q9BTE1); test: co-purification of co-expressed subunits
[2] = target: Dynactin pointed end (PE) complex (p25, p27, p62, Arp11) (UniProt Q9BTE1); test: SEC
[3] = target: ROD-Zwilch-ZW10 (RZZ) complex with mCherry on ROD (UniProt P50748); test: SEC

| binding [1] | Substance | binding [2] | binding [3] |
| --- | --- | --- | --- |
| binds | Dynactin Arp11 (from UniProt Q9NZ32 1-417) |  |  |
| binds | Dynactin p27 (from UniProt O00399 1-190) |  |  |
|  | ^mChSpindly^Chimera (BICD2 1-292 joined to Spindly 251-605) (from UniProt Q8TD16;Q96EA4) | binds | binds |
